Assay [1] deals with Flag-tagged variant of the TRiC subunit Cct1 (mouse) (UniProt P11983). Nature of the assay: co-IP; Flag-tagged Cct1 or Cct2 immunoprecipitated; V1A and V1B2 detected; amino acid starvation and restimulation (Supplementary Fig. 6c).
The target of assay [2] is T1, Flag-tagged variant of the TRiC subunit Cct2 (mouse) (UniProt P80314).
T1 sequence: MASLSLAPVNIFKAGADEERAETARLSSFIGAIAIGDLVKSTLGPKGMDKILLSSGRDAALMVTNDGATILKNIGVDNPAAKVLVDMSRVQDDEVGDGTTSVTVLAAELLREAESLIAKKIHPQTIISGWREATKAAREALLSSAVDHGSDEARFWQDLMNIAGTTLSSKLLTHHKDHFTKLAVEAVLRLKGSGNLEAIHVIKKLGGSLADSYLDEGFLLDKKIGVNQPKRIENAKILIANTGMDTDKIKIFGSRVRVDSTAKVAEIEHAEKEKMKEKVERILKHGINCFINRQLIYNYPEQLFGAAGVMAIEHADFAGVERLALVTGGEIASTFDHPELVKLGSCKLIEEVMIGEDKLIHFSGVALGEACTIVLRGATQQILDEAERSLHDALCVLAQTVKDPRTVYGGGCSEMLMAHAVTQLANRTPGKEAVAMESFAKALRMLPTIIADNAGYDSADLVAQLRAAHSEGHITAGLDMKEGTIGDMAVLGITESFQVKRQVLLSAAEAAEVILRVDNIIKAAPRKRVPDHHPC
Described as above.

The chains behind the UniProt entries cited, without tags or fusion partners. Where a name states a change or a piece, a line headed by the entry shows the natural chain unless it says otherwise.
UniProt P11983: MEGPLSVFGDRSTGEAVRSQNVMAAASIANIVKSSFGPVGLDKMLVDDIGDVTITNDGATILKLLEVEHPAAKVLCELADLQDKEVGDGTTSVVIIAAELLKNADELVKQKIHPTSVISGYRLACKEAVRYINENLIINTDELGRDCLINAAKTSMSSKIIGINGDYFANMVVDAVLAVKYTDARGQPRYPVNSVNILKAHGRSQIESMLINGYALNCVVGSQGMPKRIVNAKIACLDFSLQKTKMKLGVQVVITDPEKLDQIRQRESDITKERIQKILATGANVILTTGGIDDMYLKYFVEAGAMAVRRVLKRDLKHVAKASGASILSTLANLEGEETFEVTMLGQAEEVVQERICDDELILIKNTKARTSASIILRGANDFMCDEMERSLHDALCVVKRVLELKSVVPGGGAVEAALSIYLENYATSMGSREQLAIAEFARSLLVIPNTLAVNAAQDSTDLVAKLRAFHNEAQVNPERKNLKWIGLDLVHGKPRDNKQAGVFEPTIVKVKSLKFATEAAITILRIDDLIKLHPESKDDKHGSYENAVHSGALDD
UniProt P21281: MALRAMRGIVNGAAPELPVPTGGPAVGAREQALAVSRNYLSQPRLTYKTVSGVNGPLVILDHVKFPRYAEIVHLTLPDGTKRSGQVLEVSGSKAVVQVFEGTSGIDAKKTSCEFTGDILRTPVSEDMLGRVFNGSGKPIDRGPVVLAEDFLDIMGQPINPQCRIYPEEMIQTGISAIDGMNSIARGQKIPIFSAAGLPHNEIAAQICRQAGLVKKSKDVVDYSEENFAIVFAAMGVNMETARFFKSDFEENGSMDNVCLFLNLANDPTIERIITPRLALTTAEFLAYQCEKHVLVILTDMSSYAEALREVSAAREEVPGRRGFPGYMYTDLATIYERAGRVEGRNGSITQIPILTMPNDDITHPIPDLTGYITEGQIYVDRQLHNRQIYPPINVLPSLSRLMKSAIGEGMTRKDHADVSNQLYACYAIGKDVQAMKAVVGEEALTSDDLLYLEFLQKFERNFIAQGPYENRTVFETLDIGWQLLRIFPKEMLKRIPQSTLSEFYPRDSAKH
UniProt P50516: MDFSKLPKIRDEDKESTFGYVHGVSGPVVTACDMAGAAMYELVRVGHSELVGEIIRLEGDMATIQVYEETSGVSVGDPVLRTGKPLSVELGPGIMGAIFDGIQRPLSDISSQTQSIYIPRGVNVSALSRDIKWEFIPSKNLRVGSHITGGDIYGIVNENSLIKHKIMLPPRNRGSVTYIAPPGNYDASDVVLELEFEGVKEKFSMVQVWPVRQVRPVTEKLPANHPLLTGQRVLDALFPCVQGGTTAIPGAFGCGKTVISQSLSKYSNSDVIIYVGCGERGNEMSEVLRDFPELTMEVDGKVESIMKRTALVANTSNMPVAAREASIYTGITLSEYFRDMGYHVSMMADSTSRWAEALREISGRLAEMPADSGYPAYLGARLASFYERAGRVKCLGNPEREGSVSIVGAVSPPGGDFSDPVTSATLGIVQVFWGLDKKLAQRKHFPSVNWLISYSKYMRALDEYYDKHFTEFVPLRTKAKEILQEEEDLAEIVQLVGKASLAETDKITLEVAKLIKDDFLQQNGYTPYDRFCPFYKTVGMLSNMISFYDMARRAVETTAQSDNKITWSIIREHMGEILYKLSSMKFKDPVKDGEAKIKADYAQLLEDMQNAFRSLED

Results are given in words; binding and its absence hold for the method and conditions named. In cells and extracts the contact can be indirect. Some binding calls cover weakened binding; strength is not graded here. For some of these results: Where a sequence is shown, tags or fusion partners need not be part of it.

“HA-tagged V1B2 (V-ATPase V1 domain subunit B2, ATP6V1B2) (from UniProt P21281 1-511)”: the binding entry in assay [1] and in assay [2] was “binds” each time.
Take “V-ATPase V1 domain subunit V1A (from UniProt P50516 1-617)”: the binding entry in assay [1] and in assay [2] was “binds” throughout.

Values taken from article PMC9385660.
